Results reported in patent US4234546A, “Liquid/liquid extraction of nickel values” (Shell Oil Company, priority 1977, dated 1980).

What was measured:
[1] = Nickel extraction yield versus extraction time, toluene extractant (Examples VI-IX, Comparative Experiment II); settings: pH 3.0, 50° C
Description: (§1) To be successful in application to commercial nickel extraction processes, the ligands must be able to complex with the nickel values both rapidly and completely. The rate of transfer of nickel values from an aqueous to organic phase in such an extraction process is conventionally expressed in terms of "extraction yield," which is defined by means of the following illustration. When an aqueous solution containing nickel values has been contacted, with agitation, for a period of, say, "t" minutes with the organic extractant, a sample is drawn from the mixture while agitation is continued. This sample is allowed to separate into an aqueous phase and an organic phase and the nickel content of the organic phase--indicated as "a" mg Ni/l--is determined. When, after prolonged agitation of the aqueous layer with the organic solution, equilibrium has been reached, the mixture is separated into an aqueous phase and an organic phase and the nickel content of the organic phase and an organic phase and the nickel content of the organic phase--indicated as "b" mg Ni/l--is determined. The extraction yield after t minutes' agitation, expressed as a percentage, is defined as
(§2) The stirrer speed was 2000 revolutions per minute.
The temperature was kept at 50° C. At various time intervals a sample was drawn from the mixture while stirring was continued. After separation of the layers of the sample, the nickel content of the organic layer was determined. When stirring had been continued for a total of two hours, the mixture was taken to be in equilibrium and stirring was stopped. The two phases in the vessel were allowed to separate and the nickel content of the organic phase was determined, followed by calculation of the extraction yield.
Four mixtures of dioximes were tested in this manner.

[2] = Nickel extraction yield versus extraction time, chloroform extractant, in presence of iron (III) (Example X, Comparative Experiment III); settings: pH 1.5, 30° C
Description: as §1, §2
Temperature of the batch extraction was held at 30° C. The general procedures of Examples VI-IX were otherwise followed. Table IV presents the results of Example X and of Comparative Experiment III, carried out in the same general manner but utilizing dioxime A.

**Q.** With `CCCCCCCC(=NO)C(CCCCCCC)=NO` [Dioxime A, 8,9-hexadecanedione dioxime] as the compound, how does the Extraction yield ([1]; 0.5 min) read?
**A.** The Extraction yield was 5%.

**Q.** What about the Extraction yield ([1]; 1.0 min) of the same compound?
**A.** The Extraction yield was 9%.

**Q.** What about the Extraction yield ([1]; 1.5 min) of the same compound?
**A.** The Extraction yield was 13%.

**Q.** What about the Extraction yield ([1]; 2.0 min) of the same compound?
**A.** Its Extraction yield is 17%.

**Q.** And the Extraction yield ([1]; 3.0 min)?
**A.** The Extraction yield was 23%.

**Q.** And the Extraction yield ([1]; 5.0 min)?
**A.** The Extraction yield was 33%.

**Q.** And the Extraction yield ([1]; 10.0 min)?
**A.** Its Extraction yield is 54%.

**Q.** What about the Extraction yield ([2]; 1 min) of the same compound?
**A.** The Extraction yield was 3%.

**Q.** What about the Extraction yield ([2]; 2 min) of the same compound?
**A.** Its Extraction yield is 5%.

**Q.** What about the Extraction yield ([2]; 3 min) of the same compound?
**A.** The Extraction yield was 7%.

**Q.** And the Extraction yield ([2]; 4 min)?
**A.** The Extraction yield was 9%.

**Q.** And the Extraction yield ([2]; 5 min)?
**A.** Its Extraction yield is 11%.

**Q.** And the Extraction yield ([2]; 10 min)?
**A.** Its Extraction yield is 19%.

**Q.** And the Extraction yield ([2]; 15 min)?
**A.** The Extraction yield was 27%.

**Q.** And the Extraction yield ([2]; 30 min)?
**A.** Its Extraction yield is 49%.
